± gives the standard deviation. The entries are a selection whose mix differs from that of the whole data set. The uncertainty is large for many entries. Where only a bound is given, the exact number is not on record here.

The subject of this test is EfPiwi piRISC loaded with piRNA #1 (26 nt). Description: pre-steady-state target cleavage rate (min^-1); guide: piRNA #1 5'p-UGAGGUAGUAGGUUGUAUAGUAUCCA; MIWI and MILI are mouse PIWI proteins and EfPiwi is from a freshwater sponge; tags in brackets are library labels; higher = faster piRNA-guided slicing of the target. Conditions: auxiliary factor: 500 nM Ephydatia muelleri Gtsf1. On the procedure:
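Cleave-'n-Seq: a library of target RNAs (target site in constant flanks) at […] was incubated with 1 nM active freshwater sponge Ephydatia fluviatilis Piwi piRISC (synthetic 5'-monophosphorylated piRNA guide) with or without 500 nM EmGtsf1 at 33 °C for 1 min to 16 h. Uncleaved targets were sequenced and the pooled three trials fitted to a burst-and-steady-state model to give the pre-steady-state cleavage rate (min^-1). Sequence is the target site only. Fits with R² ≤ 0 are excluded.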
In the case of GGAGUGGAUACUAUACAGCCUACUACCUCA, the “pre-steady-state target cleavage rate” value stood at 0.216 ± 0.073.
For GGAGACCUAUGAUAUCAACCUACUACGUGA the value was 0.000176 ± 0.016.
To GGAGACCUAUGAUUACUACCUUCUACCUCA belongs 0.000324 ± 0.0073; to “GGAGAGGAUACUAUACAACGAUGAUGGAGA [g12:g25:cont:t1A]”, 0.00183 ± 0.0056; to GGAGACGCUACUAUACAACCUACUACCUCA, 0.163 ± 0.051.
As for GGAGACCUUACUAUACAACCUACUUGGUCA, the “pre-steady-state target cleavage rate” value worked out at 0.00296 ± 0.004.
For GGAGACCUAUGAUAUGUUCACUACUACCUCA the value was 0.00146 ± 0.0033; for GGAGACCUAUGAUAUGUUGCUAGUACGUCA, 0.000982 ± 0.0065; for GGAGACCUAUGAUAUGUUGCUACAACCUCA, 0.000441 ± 0.0052.
To GGAGACCUUACUAUAGAACCUACUACCUCA belongs 0.00324 ± 0.0026.
As to GGAGACCUAUGAAUACAACCUACUACCUGA, the “pre-steady-state target cleavage rate” value came out at 0.00156 ± 0.0044.
To “GGAGAGGAUACUAUACAACCUACUACCUCC [g2:g25:cont:t1C]” belongs 0.12 ± 0.046.
With GGAGUGGAAUCUAUACAACCUACUACCUCA, the “pre-steady-state target cleavage rate” value amounted to 0.00913 ± 0.0055.
Take GGAGACCUUACUUUACAACCAACUACCUCA: the “pre-steady-state target cleavage rate” value stood at 0.0015 ± 0.0056.
To GGAGACCUAUGAAUACAACGUACUAGCUCA belongs 0.00135 ± 0.0062.
Turning to GGAGACCUAUGAUAACAAGGAACUACCUCA, the “pre-steady-state target cleavage rate” value is below 0.0001.
For the sequence GGAGACCUAUGUUUACAACCUACUAGCUCA, the “pre-steady-state target cleavage rate” value was determined as 0.00195 ± 0.0054.
For the sequence GGAGACCUAUGUAAACAACCAACUACCUCA, the “pre-steady-state target cleavage rate” value worked out at 0.000197 ± 0.019.
For GGAGACCUAAGAUUACAACCUACUACCUCA the value was 0.00381 ± 0.004; for GGAGACCUAUGAUUACAACCUACUACCCUCA, 0.000968 ± 0.0075; for GGAGACCUAUGAUUCCAACCUACUACCUCA, 0.000746 ± 0.0065.
For the sequence GGAGACGAUAGUAUAGAACCUACUACCUCA, the “pre-steady-state target cleavage rate” value was 0.000825 ± 0.004.
With GGAGACCUAUCUAUACAACCUAUACCUCA, the “pre-steady-state target cleavage rate” value amounted to 0.000529 ± 0.0094.
For GGAGACCUAUGAUAUGAAGGUACUACCUCA the value was 0.000573 ± 0.0051; for GGAGACCUAUCAAUAGAACCUACUACCUCA, 0.000819 ± 0.0079.
For GGAGACCAUACUUUACAACCUACUACGUCA, the “pre-steady-state target cleavage rate” value amounted to 0.00268 ± 0.0031.
On to GGAGACCUAUGUAUACAACCUACUACCGUCA, for which the “pre-steady-state target cleavage rate” value worked out at 0.00101 ± 0.0072.
As to GGAGACCUUACUAUACAACCUUCUACCACA, the “pre-steady-state target cleavage rate” value is 0.00207 ± 0.0036.
GGAGACCUAUGAUUACAACCAUCUACCUCA: the “pre-steady-state target cleavage rate” value was found to be 0.000286 ± 0.0097.
For the sequence GGAGACCUUACUAUACAACCACUACCUCA, the “pre-steady-state target cleavage rate” value came to 0.0103 ± 0.0057.
For GGAGACCUAUGAUUACAACCUAGUACCACA the value was 0.000783 ± 0.006; for GGAGACCUAUCUAUACAACCUACAAGCUCA, 0.000603 ± 0.01.
To GGAGUGGAUACUAUACAUCCAACUACCUCA belongs 0.00457 ± 0.0019; to GGAGACCAUACUAUACAACCAACUUCCUCA, 0.00509 ± 0.0046.
Take GGAGACCUAUGAUUAGAACCUACUAGCUCA: the “pre-steady-state target cleavage rate” value came to 0.000171 ± 0.012.
To GGAGACCUAUGAUAACAACGUACUUCCUCA belongs 0.000698 ± 0.0088; to GGAGAGGAUAGUAAACAACCUACUACCUCA, 0.00286 ± 0.0037.
In the case of GGAGACCUUACUUUACAACCUACAACCUCA, the “pre-steady-state target cleavage rate” value amounted to 0.000388 ± 0.0063.
On to GGAGACCUAUGAAUACAACCUACUACGAGA, for which the “pre-steady-state target cleavage rate” value was determined as 0.000618 ± 0.0081.
GGAGACCUAUCUAAUACAACCUACUACCUCA: the “pre-steady-state target cleavage rate” value was determined as 0.00579 ± 0.004.

For the origin of these results see the supplement of paper PMC10338343.
